Reference: the supplement of paper PMC12823440, “Inhibitors supercharge kinase turnover through native proteolytic circuits” (Nature, 2025)
Structures can show the parent of a compound that is named as a salt. The list shows a part of the results. Hit calls seldom repeat between salt and free forms of one compound.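 Kinases were expressed as nanoluciferase fusions in K562 cells and luminescence was read every 4 h between 2 and 18 h as percent of control, DMSO set to 100% and a positive control to 0%. A time point counts as decreased when the signal drops significantly (2 sigma). The hit call is the authors' own, does not follow from the count of time points alone, and its rule is not shown.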

By UniProt entry, the sequences of proteins in these tests, tags left out. Where a name states a change or a piece, a line headed by the entry shows the natural chain unless it says otherwise.
UniProt Q16620, whole entry, looked up: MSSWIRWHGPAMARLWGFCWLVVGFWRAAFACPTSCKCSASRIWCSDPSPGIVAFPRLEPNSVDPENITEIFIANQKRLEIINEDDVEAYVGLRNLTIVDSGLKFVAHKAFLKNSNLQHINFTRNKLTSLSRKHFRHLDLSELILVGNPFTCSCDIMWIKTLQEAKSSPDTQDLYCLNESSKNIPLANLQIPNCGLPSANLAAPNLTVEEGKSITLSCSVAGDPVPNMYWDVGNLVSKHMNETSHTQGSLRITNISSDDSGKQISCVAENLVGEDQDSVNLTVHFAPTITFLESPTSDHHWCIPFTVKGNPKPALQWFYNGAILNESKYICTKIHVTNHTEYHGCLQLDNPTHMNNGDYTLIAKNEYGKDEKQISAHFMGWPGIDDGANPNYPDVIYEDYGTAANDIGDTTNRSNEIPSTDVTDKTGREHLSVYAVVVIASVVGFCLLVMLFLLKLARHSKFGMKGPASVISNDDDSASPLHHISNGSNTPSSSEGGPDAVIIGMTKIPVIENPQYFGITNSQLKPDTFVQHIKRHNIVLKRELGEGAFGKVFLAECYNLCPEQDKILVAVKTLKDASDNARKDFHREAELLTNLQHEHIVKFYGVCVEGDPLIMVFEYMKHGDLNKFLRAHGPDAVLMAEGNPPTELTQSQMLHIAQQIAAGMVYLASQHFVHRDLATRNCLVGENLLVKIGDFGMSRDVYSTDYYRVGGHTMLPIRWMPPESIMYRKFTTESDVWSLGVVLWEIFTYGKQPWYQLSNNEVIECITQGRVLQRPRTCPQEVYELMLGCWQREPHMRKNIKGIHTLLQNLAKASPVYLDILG
UniProt Q16288, whole entry, looked up: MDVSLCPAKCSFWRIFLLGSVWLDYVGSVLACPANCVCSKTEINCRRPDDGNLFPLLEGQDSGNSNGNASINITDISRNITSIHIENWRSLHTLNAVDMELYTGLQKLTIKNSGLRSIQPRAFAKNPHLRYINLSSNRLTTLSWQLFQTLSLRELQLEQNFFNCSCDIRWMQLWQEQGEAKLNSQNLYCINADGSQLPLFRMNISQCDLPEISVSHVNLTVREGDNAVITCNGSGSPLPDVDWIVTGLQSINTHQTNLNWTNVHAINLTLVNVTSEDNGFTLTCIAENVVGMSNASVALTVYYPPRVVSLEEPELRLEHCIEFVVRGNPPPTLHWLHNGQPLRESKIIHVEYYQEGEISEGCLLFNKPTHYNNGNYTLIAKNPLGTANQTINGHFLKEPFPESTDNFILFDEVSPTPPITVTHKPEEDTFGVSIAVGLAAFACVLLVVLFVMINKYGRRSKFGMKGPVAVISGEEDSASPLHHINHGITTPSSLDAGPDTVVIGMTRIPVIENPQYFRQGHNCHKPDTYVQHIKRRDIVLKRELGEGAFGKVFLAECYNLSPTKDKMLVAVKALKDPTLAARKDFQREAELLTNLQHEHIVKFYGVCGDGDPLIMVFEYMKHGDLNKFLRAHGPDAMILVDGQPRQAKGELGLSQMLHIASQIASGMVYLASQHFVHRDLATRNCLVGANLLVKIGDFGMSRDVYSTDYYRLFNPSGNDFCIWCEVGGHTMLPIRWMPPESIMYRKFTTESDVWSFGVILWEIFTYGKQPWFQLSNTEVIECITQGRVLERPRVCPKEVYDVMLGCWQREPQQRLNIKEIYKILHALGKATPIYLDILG
UniProt Q96KB5: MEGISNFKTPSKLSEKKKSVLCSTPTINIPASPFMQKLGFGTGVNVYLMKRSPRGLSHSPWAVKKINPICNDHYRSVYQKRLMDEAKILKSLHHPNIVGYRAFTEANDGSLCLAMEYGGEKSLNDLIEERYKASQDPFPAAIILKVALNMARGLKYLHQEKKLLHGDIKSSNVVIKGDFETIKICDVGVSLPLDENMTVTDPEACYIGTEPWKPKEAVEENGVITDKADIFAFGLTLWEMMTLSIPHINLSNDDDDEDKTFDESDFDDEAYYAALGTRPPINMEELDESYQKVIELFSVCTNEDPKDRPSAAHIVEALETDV
UniProt Q15118, whole entry, looked up: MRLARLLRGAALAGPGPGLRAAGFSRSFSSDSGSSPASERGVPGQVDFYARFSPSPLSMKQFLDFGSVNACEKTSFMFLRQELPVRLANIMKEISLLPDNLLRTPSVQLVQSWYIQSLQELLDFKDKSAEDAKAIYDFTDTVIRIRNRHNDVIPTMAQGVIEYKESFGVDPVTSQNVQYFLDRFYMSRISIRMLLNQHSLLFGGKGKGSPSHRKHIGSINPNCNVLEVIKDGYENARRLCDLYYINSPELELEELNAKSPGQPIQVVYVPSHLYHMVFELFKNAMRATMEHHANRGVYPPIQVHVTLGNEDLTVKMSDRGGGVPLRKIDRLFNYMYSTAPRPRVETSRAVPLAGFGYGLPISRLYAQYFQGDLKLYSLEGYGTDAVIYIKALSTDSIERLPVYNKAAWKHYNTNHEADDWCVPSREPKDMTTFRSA
UniProt P42356, whole entry, looked up: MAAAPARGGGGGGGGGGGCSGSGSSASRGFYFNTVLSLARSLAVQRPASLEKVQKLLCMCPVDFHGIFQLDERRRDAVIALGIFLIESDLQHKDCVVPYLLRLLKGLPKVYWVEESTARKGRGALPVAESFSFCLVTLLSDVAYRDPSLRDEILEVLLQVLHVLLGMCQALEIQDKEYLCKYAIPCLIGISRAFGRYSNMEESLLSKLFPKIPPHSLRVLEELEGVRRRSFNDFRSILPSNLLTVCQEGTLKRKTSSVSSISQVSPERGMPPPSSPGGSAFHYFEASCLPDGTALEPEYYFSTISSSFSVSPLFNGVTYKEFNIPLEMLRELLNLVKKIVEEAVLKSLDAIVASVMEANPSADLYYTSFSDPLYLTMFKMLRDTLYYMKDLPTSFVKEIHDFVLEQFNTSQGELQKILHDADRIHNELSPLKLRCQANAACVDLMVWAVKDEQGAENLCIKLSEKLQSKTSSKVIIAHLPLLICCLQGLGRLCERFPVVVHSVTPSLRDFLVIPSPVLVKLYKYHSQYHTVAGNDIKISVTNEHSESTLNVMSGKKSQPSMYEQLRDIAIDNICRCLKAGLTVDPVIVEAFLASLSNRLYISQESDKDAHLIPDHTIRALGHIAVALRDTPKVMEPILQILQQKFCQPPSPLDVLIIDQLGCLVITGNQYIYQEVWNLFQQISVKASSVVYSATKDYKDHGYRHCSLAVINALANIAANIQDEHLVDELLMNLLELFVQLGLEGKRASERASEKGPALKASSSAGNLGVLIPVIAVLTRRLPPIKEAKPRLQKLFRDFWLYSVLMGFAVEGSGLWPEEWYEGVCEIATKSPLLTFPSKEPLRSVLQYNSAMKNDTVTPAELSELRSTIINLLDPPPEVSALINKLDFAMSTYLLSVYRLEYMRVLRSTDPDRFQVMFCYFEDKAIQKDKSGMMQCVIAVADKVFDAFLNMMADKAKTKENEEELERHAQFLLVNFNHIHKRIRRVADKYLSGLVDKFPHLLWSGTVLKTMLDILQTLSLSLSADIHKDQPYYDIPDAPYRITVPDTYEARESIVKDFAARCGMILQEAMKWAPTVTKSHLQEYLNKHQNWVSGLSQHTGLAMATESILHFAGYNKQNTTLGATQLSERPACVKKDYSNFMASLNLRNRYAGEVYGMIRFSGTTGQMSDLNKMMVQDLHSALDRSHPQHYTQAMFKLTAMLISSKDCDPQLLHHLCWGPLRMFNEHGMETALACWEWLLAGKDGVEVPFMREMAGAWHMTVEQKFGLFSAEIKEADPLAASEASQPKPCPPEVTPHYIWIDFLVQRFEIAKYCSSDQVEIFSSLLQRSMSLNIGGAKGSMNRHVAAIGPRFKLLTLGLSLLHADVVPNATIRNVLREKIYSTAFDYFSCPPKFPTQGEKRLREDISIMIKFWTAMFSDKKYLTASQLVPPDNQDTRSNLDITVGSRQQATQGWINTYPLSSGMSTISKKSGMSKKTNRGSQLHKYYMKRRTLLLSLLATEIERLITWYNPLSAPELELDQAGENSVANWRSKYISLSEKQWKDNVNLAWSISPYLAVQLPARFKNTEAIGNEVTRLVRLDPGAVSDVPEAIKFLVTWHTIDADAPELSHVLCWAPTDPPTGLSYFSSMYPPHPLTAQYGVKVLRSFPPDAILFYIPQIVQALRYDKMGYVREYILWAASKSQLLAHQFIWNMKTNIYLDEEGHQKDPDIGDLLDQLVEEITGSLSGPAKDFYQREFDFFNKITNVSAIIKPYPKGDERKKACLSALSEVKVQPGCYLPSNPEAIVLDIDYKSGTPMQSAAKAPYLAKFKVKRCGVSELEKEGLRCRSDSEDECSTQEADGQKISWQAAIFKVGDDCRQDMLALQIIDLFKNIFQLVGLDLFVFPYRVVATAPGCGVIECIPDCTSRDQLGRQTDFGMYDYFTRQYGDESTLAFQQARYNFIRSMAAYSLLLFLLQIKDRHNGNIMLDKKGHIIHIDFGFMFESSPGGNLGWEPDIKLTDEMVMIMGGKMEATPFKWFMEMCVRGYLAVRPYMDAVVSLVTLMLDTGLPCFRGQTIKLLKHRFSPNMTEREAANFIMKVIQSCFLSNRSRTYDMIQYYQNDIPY
UniProt Q05397, whole entry, looked up: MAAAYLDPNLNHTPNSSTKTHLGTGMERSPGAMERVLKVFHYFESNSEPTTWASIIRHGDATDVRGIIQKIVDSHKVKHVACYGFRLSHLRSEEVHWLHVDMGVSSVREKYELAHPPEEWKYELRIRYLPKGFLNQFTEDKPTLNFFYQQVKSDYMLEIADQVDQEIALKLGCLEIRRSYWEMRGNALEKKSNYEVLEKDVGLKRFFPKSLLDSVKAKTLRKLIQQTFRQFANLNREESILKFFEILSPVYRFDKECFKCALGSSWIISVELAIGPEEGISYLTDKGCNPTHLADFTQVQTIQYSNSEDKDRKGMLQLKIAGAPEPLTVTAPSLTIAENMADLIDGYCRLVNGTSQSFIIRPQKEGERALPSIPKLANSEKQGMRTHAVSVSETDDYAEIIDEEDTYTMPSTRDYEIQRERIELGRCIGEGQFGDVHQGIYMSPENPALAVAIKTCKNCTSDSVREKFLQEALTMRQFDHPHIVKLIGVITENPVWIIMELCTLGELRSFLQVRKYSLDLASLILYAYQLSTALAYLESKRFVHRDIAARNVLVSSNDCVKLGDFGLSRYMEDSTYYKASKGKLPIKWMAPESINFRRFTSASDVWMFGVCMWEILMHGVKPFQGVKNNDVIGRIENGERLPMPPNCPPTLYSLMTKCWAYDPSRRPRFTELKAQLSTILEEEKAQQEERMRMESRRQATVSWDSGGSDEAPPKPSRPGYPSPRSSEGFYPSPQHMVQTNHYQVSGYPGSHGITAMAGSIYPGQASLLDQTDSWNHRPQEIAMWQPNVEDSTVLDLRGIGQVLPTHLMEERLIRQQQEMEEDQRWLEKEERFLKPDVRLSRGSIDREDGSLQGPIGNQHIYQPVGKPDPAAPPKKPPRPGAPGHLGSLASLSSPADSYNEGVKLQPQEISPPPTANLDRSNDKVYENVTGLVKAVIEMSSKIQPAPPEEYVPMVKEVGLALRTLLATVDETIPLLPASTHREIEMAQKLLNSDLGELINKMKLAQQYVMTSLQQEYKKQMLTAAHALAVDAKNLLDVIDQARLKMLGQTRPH

Assays:
Experiment in all cases: kinase-Nluc reporter destabilization hit call (1 = scored as downregulated) (binary); higher = compound decreases kinase abundance
Conditions in all cases: K562; 2-18 h
MAPK1 = MAPK1 (UniProt P28482)
MAPK4 = MAPK4 (UniProt P31152)
MAPKAPK2 = MAPKAPK2 (UniProt P49137)
MKNK1 = MKNK1 (UniProt Q9BUB5)
NTRK2 = NTRK2 (UniProt Q16620)
NTRK3 = NTRK3 (UniProt Q16288)
PAK4 = PAK4 (UniProt O96013)
PBK = PBK (UniProt Q96KB5)
PDGFRB = PDGFRB (UniProt P09619)
PDK1 = PDK1 (UniProt Q15118)
PDPK1 = PDPK1 (UniProt O15530)
PIK4CA = PIK4CA (UniProt P42356)
PIK4CB = PIK4CB (UniProt Q9UBF8)
PLK1 = PLK1 (UniProt P53350)
PRKAA1 = PRKAA1 (UniProt Q13131)
PRKCA = PRKCA (UniProt P17252)
PTK2 = PTK2 (UniProt Q05397)
PTK2B = PTK2B (UniProt Q14289)
RAF1 = RAF1 (UniProt P04049)
[1] = target: RAF1_S257L (clone: RAF1_mut) (UniProt P04049)

Measured: kinase-Nluc reporter destabilization hit call

Nc1ncnc2c1c(-c1cccc(OCc3ccccc3)c1)cn2C1CC(CN2CCCC2)C1 (stereo not given) (2.5 µM)
inactive: MAPK1 = 0 | MAPK4 = 0 | MAPKAPK2 = 0 | MKNK1 = 0 | NTRK2 = 0 | NTRK3 = 0 | PAK4 = 0 | PBK 0 | PDGFRB 0 | PDK1 = 0 | PDPK1 = 0 | PIK4CA 0 | PIK4CB 0 | PLK1 = 0 | PRKAA1 = 0 | PRKCA 0 | PTK2 = 0 | PTK2B 0 | RAF1 = 0 | [1] 0

O=C(O)CCNC(=O)c1ccc(/N=N/c2ccc(O)c(C(=O)O)c2)cc1 [Balsalazide] (10 µM)
inactive: MAPK1 = 0 | MAPK4 = 0 | MAPKAPK2 = 0 | MKNK1 = 0 | NTRK2 = 0 | NTRK3 = 0 | PAK4 = 0 | PBK 0 | PDGFRB 0 | PDK1 = 0 | PDPK1 = 0 | PIK4CA 0 | PIK4CB 0 | PLK1 = 0 | PRKAA1 = 0 | PRKCA 0 | PTK2 = 0 | PTK2B 0 | RAF1 = 0 | [1] 0

COc1ccc(F)c(F)c1C(=O)c1cnc(NC2CCN(S(C)(=O)=O)CC2)nc1N (2.5 µM)
inactive: MAPK1 = 0 | MAPK4 = 0 | MAPKAPK2 = 0 | MKNK1 = 0 | NTRK2 = 0 | NTRK3 = 0 | PAK4 = 0 | PBK 0 | PDGFRB 0 | PDK1 = 0 | PDPK1 = 0 | PIK4CA 0 | PIK4CB 0 | PLK1 = 0 | PRKAA1 = 0 | PRKCA 0 | PTK2 = 0 | PTK2B 0 | RAF1 = 0
active: [1] 1

CC(C)Oc1cc(Nc2nc(N[C@@H](C)c3ccc(F)cn3)ncc2Cl)n[nH]1 (10 µM)
inactive: MAPK1 = 0 | MAPK4 = 0 | MAPKAPK2 = 0 | MKNK1 = 0 | NTRK2 = 0 | NTRK3 = 0 | PAK4 = 0 | PBK 0 | PDGFRB 0 | PDK1 = 0 | PDPK1 = 0 | PIK4CA 0 | PIK4CB 0 | PLK1 = 0 | PRKAA1 = 0 | PRKCA 0 | PTK2 = 0 | PTK2B 0 | RAF1 = 0 | [1] 0

COCc1c(-c2ccc(NC(=O)Nc3cc(C(F)(F)F)ccc3F)c(F)c2)c2c(N)ncnn2c1CN1CCOCC1 (2.5 µM)
inactive: MAPK1 = 0 | MAPK4 = 0 | MAPKAPK2 = 0 | MKNK1 = 0 | NTRK2 = 0 | NTRK3 = 0 | PAK4 = 0 | PBK 0 | PDGFRB 0 | PDK1 = 0 | PDPK1 = 0 | PIK4CA 0 | PIK4CB 0 | PLK1 = 0 | PRKAA1 = 0 | PRKCA 0 | PTK2 = 0 | PTK2B 0 | RAF1 = 0 | [1] 0

CCn1c(=O)c2cc(C(N)=O)c(N)nc2n(C2CC2)c1=O (10 µM)
inactive: MAPK1 = 0 | MAPK4 = 0 | MAPKAPK2 = 0 | MKNK1 = 0 | NTRK2 = 0 | NTRK3 = 0 | PAK4 = 0 | PBK 0 | PDGFRB 0 | PDK1 = 0 | PDPK1 = 0 | PIK4CA 0 | PIK4CB 0 | PLK1 = 0 | PRKAA1 = 0 | PRKCA 0 | PTK2 = 0 | PTK2B 0 | RAF1 = 0 | [1] 0

O=S(=O)(NCCNC/C=C/c1ccc(Br)cc1)c1cccc2cnccc12 [H-89 (dihydrochloride)] (10 µM)
inactive: MAPK1 = 0 | MAPK4 = 0 | MAPKAPK2 = 0 | MKNK1 = 0 | NTRK2 = 0 | NTRK3 = 0 | PAK4 = 0 | PBK 0 | PDGFRB 0 | PDK1 = 0 | PDPK1 = 0 | PIK4CA 0 | PIK4CB 0 | PLK1 = 0 | PRKAA1 = 0 | PRKCA 0 | PTK2 = 0 | PTK2B 0 | RAF1 = 0 | [1] 0

O=C1Cc2c([nH]c3ccc(Br)cc23)-c2ncccc2N1 [1-Azakenpaullone] (10 µM)
inactive: MAPK1 = 0 | MAPK4 = 0 | MAPKAPK2 = 0 | MKNK1 = 0 | NTRK2 = 0 | NTRK3 = 0 | PAK4 = 0 | PBK 0 | PDGFRB 0 | PDK1 = 0 | PDPK1 = 0 | PIK4CA 0 | PIK4CB 0 | PLK1 = 0 | PRKAA1 = 0 | PRKCA 0 | PTK2 = 0 | PTK2B 0 | RAF1 = 0 | [1] 0

Reprinted at random: 2 compounds from above.
COCc1c(-c2ccc(NC(=O)Nc3cc(C(F)(F)F)ccc3F)c(F)c2)c2c(N)ncnn2c1CN1CCOCC1 (2.5 µM)
inactive: MAPK1 = 0 | MAPK4 = 0 | MAPKAPK2 = 0 | MKNK1 = 0 | NTRK2 = 0 | NTRK3 = 0 | PAK4 = 0 | PBK 0 | PDGFRB 0 | PDK1 = 0 | PDPK1 = 0 | PIK4CA 0 | PIK4CB 0 | PLK1 = 0 | PRKAA1 = 0 | PRKCA 0 | PTK2 = 0 | PTK2B 0 | RAF1 = 0 | [1] 0

O=S(=O)(NCCNC/C=C/c1ccc(Br)cc1)c1cccc2cnccc12 [H-89 (dihydrochloride)] (10 µM)
inactive: MAPK1 = 0 | MAPK4 = 0 | MAPKAPK2 = 0 | MKNK1 = 0 | NTRK2 = 0 | NTRK3 = 0 | PAK4 = 0 | PBK 0 | PDGFRB 0 | PDK1 = 0 | PDPK1 = 0 | PIK4CA 0 | PIK4CB 0 | PLK1 = 0 | PRKAA1 = 0 | PRKCA 0 | PTK2 = 0 | PTK2B 0 | RAF1 = 0 | [1] 0

Further structures follow:

CC(C)c1cnn2c(NCc3ccccc3)cc(NC[C@H]3CCNC[C@@H]3O)nc12 [Samuraciclib (hydrochloride)] (10 µM)
inactive: MAPK1 = 0 | MAPK4 = 0 | MAPKAPK2 = 0 | MKNK1 = 0 | NTRK2 = 0 | NTRK3 = 0 | PAK4 = 0 | PBK 0 | PDGFRB 0 | PDK1 = 0 | PDPK1 = 0 | PIK4CA 0 | PIK4CB 0 | PLK1 = 0 | PRKAA1 = 0 | PRKCA 0 | PTK2 = 0 | PTK2B 0 | RAF1 = 0 | [1] 0

CCCCNc1ncc(-c2ccc(CN3CCOCC3)cn2)c(NC2CCC(O)CC2)n1 (stereo not given) (10 µM)
inactive: MAPK1 = 0 | MAPK4 = 0 | MAPKAPK2 = 0 | MKNK1 = 0 | NTRK2 = 0 | NTRK3 = 0 | PAK4 = 0 | PBK 0 | PDGFRB 0 | PDK1 = 0 | PDPK1 = 0 | PIK4CA 0 | PIK4CB 0 | PLK1 = 0 | PRKAA1 = 0 | PRKCA 0 | PTK2 = 0 | PTK2B 0 | RAF1 = 0 | [1] 0

COc1ccc(Oc2cc(NCCC(F)(F)F)c3ncc(-c4ccc(C(=O)NC5CC5)c(C)c4)n3n2)c(F)c1F (2.5 µM)
inactive: MAPK1 = 0 | MAPK4 = 0 | MAPKAPK2 = 0 | MKNK1 = 0 | NTRK2 = 0 | NTRK3 = 0 | PAK4 = 0 | PBK 0 | PDGFRB 0 | PDK1 = 0 | PDPK1 = 0 | PIK4CA 0 | PIK4CB 0 | PLK1 = 0 | PRKAA1 = 0 | PRKCA 0 | PTK2 = 0 | PTK2B 0 | RAF1 = 0 | [1] 0

CNC(=O)c1cccc(-c2ccc3c(N4CCOC[C@@H]4C)nc(N4CCOC[C@@H]4C)nc3n2)c1 [Vistusertib] (2.5 µM)
inactive: MAPK1 = 0 | MAPK4 = 0 | MAPKAPK2 = 0 | MKNK1 = 0 | NTRK2 = 0 | NTRK3 = 0 | PAK4 = 0 | PBK 0 | PDGFRB 0 | PDK1 = 0 | PDPK1 = 0 | PIK4CA 0 | PIK4CB 0 | PLK1 = 0 | PRKAA1 = 0 | PRKCA 0 | PTK2 = 0 | PTK2B 0 | RAF1 = 0 | [1] 0

COc1cc2nc(C)nc(N[C@H](C)c3cc(N)cc(C(F)(F)F)c3)c2cc1O[C@H]1CCOC1 (10 µM)
inactive: MAPK1 = 0 | MAPK4 = 0 | MAPKAPK2 = 0 | MKNK1 = 0 | NTRK2 = 0 | NTRK3 = 0 | PAK4 = 0 | PBK 0 | PDGFRB 0 | PDK1 = 0 | PDPK1 = 0 | PIK4CA 0 | PIK4CB 0 | PLK1 = 0 | PRKAA1 = 0 | PRKCA 0 | PTK2 = 0 | PTK2B 0 | RAF1 = 0 | [1] 0

CCN1CCN(c2ccc(Nc3cc(N(C)C(=O)Nc4c(Cl)c(OC)cc(OC)c4Cl)ncn3)cc2)CC1 [Infigratinib] (10 µM)
inactive: MAPK1 = 0 | MAPK4 = 0 | MAPKAPK2 = 0 | MKNK1 = 0 | NTRK2 = 0 | NTRK3 = 0 | PAK4 = 0 | PBK 0 | PDGFRB 0 | PDK1 = 0 | PDPK1 = 0 | PIK4CA 0 | PIK4CB 0 | PLK1 = 0 | PRKAA1 = 0 | PRKCA 0 | PTK2 = 0 | PTK2B 0 | RAF1 = 0 | [1] 0

COc1c(Cl)cc2c([nH]c3cnccc32)c1NC(=O)c1cccnc1C (10 µM)
inactive: MAPK1 = 0 | MAPK4 = 0 | MAPKAPK2 = 0 | MKNK1 = 0 | NTRK2 = 0 | NTRK3 = 0 | PAK4 = 0 | PBK 0 | PDGFRB 0 | PDK1 = 0 | PDPK1 = 0 | PIK4CA 0 | PIK4CB 0 | PLK1 = 0 | PRKAA1 = 0 | PRKCA 0 | PTK2 = 0 | PTK2B 0 | RAF1 = 0 | [1] 0

CCn1cc(-c2ccnc3[nH]c(-c4cccc(CN(C)C)c4)cc23)c(-c2ccc(NC(=O)N(C)C)cc2)n1 (2.5 µM)
inactive: MAPK1 = 0 | MAPK4 = 0 | MAPKAPK2 = 0 | MKNK1 = 0 | NTRK2 = 0 | NTRK3 = 0 | PAK4 = 0 | PBK 0 | PDGFRB 0 | PDK1 = 0 | PDPK1 = 0 | PIK4CA 0 | PIK4CB 0 | PLK1 = 0 | PRKAA1 = 0 | PRKCA 0 | PTK2 = 0 | PTK2B 0 | RAF1 = 0 | [1] 0

C=CC(=O)N1C[C@H](Nc2ncnc3[nH]ccc23)CC[C@@H]1C [Ritlecitinib] (10 µM)
inactive: MAPK1 = 0 | MAPK4 = 0 | MAPKAPK2 = 0 | MKNK1 = 0 | NTRK2 = 0 | NTRK3 = 0 | PAK4 = 0 | PBK 0 | PDGFRB 0 | PDK1 = 0 | PDPK1 = 0 | PIK4CA 0 | PIK4CB 0 | PLK1 = 0 | PRKAA1 = 0 | PRKCA 0 | PTK2 = 0 | PTK2B 0 | RAF1 = 0 | [1] 0

O=C(/C=C/c1ccc(O)c(O)c1)c1ccc(O)cc1O [Butein] (10 µM)
inactive: MAPK1 = 0 | MAPK4 = 0 | MAPKAPK2 = 0 | MKNK1 = 0 | NTRK2 = 0 | NTRK3 = 0 | PAK4 = 0 | PBK 0 | PDGFRB 0 | PDK1 = 0 | PDPK1 = 0 | PIK4CA 0 | PIK4CB 0 | PLK1 = 0 | PRKAA1 = 0 | PRKCA 0 | PTK2 = 0 | PTK2B 0 | RAF1 = 0 | [1] 0

Nc1ncnc2c1c(-c1ccc(Oc3ccccc3)cc1)cn2C1CCCC1 (2.5 µM)
inactive: MAPK1 = 0 | MAPK4 = 0 | MAPKAPK2 = 0 | MKNK1 = 0 | NTRK2 = 0 | NTRK3 = 0 | PAK4 = 0 | PBK 0 | PDGFRB 0 | PDK1 = 0 | PDPK1 = 0 | PIK4CA 0 | PIK4CB 0 | PLK1 = 0 | PRKAA1 = 0 | PRKCA 0 | PTK2 = 0 | RAF1 = 0 | [1] 0
active: PTK2B 1
